Laboratory results as given in paper doi:10.1101/487009.
Where two headings read alike, the source gives them in different places. No constants are given. Whether binding was seen depends on the method and setting. Binding seen in cells or lysates may run through a third protein. These calls come from enrichment with a bait or labelling near it, and not all partners need be listed. Where a sequence is shown, tags or fusion partners need not be part of it.

Chains of the proteins cited; added tags and fusions are not shown.
UniProt Q9ZT82: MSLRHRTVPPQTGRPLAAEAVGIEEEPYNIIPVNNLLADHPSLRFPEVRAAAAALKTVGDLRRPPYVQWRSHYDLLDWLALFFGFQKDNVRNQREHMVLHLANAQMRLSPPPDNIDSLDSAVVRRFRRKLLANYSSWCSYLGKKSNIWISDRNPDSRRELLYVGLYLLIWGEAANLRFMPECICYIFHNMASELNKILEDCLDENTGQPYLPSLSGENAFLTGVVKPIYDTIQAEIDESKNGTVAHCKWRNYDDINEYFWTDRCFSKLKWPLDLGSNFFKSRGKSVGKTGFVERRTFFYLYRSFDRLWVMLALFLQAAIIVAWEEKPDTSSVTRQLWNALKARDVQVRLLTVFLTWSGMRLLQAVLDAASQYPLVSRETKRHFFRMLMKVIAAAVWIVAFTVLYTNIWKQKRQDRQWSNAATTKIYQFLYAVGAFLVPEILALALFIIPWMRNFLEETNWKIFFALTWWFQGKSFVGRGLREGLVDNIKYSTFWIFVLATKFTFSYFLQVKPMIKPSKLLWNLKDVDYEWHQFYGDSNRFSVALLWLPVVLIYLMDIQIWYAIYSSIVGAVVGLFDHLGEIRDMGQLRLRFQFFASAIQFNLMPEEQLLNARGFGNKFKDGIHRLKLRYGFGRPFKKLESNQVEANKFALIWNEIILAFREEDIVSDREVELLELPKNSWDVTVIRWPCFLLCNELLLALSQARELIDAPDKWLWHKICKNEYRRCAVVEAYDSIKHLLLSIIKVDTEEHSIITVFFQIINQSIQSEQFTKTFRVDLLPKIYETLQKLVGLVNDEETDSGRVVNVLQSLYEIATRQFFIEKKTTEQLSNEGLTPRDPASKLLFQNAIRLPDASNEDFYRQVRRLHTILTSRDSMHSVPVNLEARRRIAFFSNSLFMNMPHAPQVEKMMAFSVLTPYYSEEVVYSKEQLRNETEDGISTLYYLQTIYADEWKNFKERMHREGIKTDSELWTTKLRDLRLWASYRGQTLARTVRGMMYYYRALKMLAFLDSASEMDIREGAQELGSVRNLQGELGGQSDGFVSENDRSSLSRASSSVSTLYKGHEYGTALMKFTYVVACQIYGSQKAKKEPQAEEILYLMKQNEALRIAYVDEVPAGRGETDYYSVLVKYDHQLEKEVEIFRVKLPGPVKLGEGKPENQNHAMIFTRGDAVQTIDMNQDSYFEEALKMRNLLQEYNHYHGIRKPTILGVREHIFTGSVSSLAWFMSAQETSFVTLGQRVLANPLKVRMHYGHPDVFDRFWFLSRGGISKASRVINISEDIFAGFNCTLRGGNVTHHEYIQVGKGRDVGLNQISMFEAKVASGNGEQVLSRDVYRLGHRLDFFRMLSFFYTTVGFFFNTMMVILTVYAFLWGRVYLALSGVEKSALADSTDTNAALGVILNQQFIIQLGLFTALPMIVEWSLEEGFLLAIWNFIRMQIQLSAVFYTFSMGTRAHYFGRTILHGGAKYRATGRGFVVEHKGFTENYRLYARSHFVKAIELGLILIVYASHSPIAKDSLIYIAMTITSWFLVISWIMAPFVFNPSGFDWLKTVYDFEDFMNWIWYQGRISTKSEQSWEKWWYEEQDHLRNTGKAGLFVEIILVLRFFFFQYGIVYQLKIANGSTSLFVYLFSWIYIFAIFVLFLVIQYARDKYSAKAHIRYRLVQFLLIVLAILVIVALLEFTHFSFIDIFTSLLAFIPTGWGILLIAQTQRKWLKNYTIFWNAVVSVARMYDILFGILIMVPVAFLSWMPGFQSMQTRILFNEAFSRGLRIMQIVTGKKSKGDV
UniProt Q9AUE0: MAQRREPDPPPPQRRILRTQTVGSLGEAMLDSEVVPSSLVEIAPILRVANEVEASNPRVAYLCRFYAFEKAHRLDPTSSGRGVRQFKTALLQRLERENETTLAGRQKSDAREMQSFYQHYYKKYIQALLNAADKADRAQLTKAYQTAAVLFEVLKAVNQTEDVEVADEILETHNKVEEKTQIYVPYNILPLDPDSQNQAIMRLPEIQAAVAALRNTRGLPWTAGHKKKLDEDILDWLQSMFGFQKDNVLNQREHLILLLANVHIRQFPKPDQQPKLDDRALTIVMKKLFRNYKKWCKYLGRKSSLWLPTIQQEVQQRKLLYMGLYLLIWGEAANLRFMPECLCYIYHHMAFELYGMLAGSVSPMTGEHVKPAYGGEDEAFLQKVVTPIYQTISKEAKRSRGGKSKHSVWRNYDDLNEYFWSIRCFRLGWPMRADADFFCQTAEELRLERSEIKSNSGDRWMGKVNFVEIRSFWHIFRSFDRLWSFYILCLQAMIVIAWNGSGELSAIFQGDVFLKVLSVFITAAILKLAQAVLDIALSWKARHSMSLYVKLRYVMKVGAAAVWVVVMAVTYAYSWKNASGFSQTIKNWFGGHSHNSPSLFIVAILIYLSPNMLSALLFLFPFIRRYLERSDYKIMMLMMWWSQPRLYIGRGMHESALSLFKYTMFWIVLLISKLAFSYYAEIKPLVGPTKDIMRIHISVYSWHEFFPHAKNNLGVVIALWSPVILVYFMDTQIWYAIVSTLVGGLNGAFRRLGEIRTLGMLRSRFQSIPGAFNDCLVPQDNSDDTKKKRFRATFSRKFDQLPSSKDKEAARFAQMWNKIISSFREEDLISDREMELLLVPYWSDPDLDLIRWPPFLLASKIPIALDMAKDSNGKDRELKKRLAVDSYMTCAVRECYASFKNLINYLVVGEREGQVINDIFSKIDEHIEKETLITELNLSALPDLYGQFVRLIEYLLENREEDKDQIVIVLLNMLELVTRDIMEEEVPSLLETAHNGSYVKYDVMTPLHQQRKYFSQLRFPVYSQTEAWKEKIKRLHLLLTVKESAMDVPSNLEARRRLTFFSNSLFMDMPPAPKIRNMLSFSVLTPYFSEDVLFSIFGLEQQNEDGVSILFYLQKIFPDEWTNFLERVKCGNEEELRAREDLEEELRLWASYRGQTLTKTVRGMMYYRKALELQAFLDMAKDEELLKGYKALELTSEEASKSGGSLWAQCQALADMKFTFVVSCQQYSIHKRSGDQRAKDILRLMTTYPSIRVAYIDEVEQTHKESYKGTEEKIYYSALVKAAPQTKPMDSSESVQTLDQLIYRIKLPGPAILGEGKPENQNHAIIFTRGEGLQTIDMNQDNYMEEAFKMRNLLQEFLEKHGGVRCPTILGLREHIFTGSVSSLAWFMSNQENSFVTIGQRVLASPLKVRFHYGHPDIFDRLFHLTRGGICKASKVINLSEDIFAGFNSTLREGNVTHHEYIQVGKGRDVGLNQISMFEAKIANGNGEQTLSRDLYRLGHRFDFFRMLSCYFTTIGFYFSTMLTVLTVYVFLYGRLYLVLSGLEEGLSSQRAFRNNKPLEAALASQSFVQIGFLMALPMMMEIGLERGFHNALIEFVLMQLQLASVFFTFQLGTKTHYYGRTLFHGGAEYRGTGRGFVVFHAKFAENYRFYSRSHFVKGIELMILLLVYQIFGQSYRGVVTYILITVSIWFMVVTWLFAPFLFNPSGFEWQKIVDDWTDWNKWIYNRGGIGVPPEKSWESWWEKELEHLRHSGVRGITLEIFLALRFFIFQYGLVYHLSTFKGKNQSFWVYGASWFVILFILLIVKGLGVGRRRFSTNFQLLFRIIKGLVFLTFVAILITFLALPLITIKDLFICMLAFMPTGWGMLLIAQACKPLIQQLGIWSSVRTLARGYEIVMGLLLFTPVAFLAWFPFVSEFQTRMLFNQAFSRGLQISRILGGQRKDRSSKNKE

T1: CRK2–YFP (Arabidopsis thaliana) (UniProt Q9CAL3)
T1 sequence: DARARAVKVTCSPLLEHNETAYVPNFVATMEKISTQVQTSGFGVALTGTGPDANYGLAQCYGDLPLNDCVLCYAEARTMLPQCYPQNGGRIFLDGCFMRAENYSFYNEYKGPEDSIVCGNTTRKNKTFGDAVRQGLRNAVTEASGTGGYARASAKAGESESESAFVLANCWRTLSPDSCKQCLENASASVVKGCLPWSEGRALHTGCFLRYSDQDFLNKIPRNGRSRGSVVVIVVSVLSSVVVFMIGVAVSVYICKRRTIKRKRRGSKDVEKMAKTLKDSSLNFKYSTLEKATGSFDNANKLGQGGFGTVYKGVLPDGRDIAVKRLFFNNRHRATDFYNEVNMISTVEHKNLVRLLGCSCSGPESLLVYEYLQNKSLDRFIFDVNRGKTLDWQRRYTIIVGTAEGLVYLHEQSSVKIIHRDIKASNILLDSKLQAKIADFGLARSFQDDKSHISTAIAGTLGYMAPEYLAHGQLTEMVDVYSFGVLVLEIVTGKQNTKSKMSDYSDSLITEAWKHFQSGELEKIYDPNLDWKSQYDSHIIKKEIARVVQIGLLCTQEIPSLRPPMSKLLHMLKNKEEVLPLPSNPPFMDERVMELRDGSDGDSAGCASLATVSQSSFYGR


Legend:
[1] = biological target: T1, CRK2–YFP (Arabidopsis thaliana); assay: affinity purification with mass spectrometry
[2] = biological target: T1, CRK2–YFP (Arabidopsis thaliana); assay: affinity purification with mass spectrometry; remark: listed apart in the source

binding [1]	binding [2]	Molecule
binds		CALS12 (from UniProt Q9ZT82 1-1780) (enzyme)
binds		CALLOSE SYNTHASE 1 (from UniProt Q9AUE0 1-1950) (enzyme)
	binds	PHOSPHOLIPASE D ALPHA 1 (enzyme, UniProt Q38882 1-810) MAQHLLHGTLHATIYEVDALHGGGVRQGFLGKILANVEETIGVGKGETQLYATIDLQKARVGRTRKIKNEPKNPKWYESFHIYCAHLASDIIFTVKDDNPIGATLIGRAYIPVDQVINGEEVDQWVEILDNDRNPIQGGSKIHVKLQYFHVEEDRNWNMGIKSAKFPGVPYTFFSQRQGCKVSLYQDAHIPDNFVPRIPLAGGKNYEPQRCWEDIFDAISNAKHLIYITGWSVYAEIALVRDSRRPKPGGDVTIGELLKKKASEGVRVLLLVWDDRTSVDVLKKDGLMATHDEETENFFRGSDVHCILCPRNPDDGGSIVQSLQISTMFTHHQKIVVVDSEMPSRGGSEMRRIVSFVGGIDLCDGRYDTPFHSLFRTLDTVHHDDFHQPNFTGAAITKGGPREPWHDIHSRLEGPIAWDVMYNFEQRWSKQGGKDILVKLRDLSDIIITPSPVMFQEDHDVWNVQLFRSIDGGAAAGFPESPEAAAEAGLVSGKDNIIDRSIQDAYIHAIRRAKDFIYVENQYFLGSSFAWAADGITPEDINALHLIPKELSLKIVSKIEKGEKFRVYVVVPMWPEGLPESGSVQAILDWQRRTMEMMYKDVIQALRAQGLEEDPRNYLTFFCLGNREVKKDGEYEPAEKPDPDTDYMRAQEARRFMIYVHTKMMIVDDEYIIIGSANINQRSMDGARDSEIAMGGYQPHHLSHRQPARGQIHGFRMSLWYEHLGMLDETFLDPSSLECIEKVNRISDKYWDFYSSESLEHDLPGHLLRYPIGVASEGDITELPGFEFFPDTKARILGTKSDYLPPILTT
